Measured values: patent publication US20180148496A1
No constants are given. Whether binding was seen depends on the method and setting. Some results given as binding are weak or reduced against the parent protein; the word gives no strength.

Tests used:
[1] = target: m47b: myristoylated lipopeptide comprising amino acids 2-48 of pre-S1 domain, biotin at the C-terminus, myristoylation at the N-terminus (Hepatitis B virus (genotype not stated for this peptide)); test: ELISA on peptide captured by streptavidin
[2] = target: 47b (a peptide similar to m47b but without the myristoylation) (Hepatitis B virus (genotype not stated for this peptide)); test: ELISA on peptide captured by streptavidin

B1: m36 (antibody, V domains shown)
VH: QMQLVQSGGGLVQPGRSLRLSCAASGFTFDDYAMHWVRQAPGKGLEWVSGISWNSGSIGYADSVKGRFTISRDNAKNSLYLQMNSLRAEDTALYYCAKTSYGGAFDIWGQGTMVTVSS
VL: QPVLTQSPSASGTPGQRVTISCSGNTSNIGSYYAYWYQQLPGTAPKLLIYDNNQRPSGIPARFSGSKSGTSASLAISGLQSEDEADYYCATWDDSLNGPVFGGGTKVTVL
[1]
  binding: binds
[2]
  binding: binds
